Data from US20110294740A1.
Results are given in words; binding and its absence hold for the method and conditions named. In cells and extracts the contact can be indirect. Some results given as binding are weak or reduced against the parent protein; the word gives no strength.

Sequences of proteins named here, by UniProt entry; tags and fusion partners are left off. Residues count along the entry.
UniProt P05067, residues 672-713: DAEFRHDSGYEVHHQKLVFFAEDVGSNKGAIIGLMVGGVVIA

Tests used:
[1] = biological target: wild-type Aβ42 peptide (UniProt P05067); experiment: co-immunoprecipitation with an anti-MBP mAb
[2] = biological target: wild-type Aβ42 peptide (UniProt P05067); experiment: co-immunoprecipitation with anti-MBP mAb 382, blot with biotinylated mAb 3D6 (Aβ) and mAb 384 (MBP)

Substance: myelin basic protein (purified MBP) (from UniProt P02686 2-171)
- binding [1]: binds
- binding [2]: binds
